PMC7819943, “Rice protein-binding microarrays: a tool to detect cis-acting elements near promoter regions in rice”
The other results are listed elsewhere or left out.

Target: T1, OsSMF1 (Oryza sativa, UniProt Q6ZLB0 1-436)
T1 sequence: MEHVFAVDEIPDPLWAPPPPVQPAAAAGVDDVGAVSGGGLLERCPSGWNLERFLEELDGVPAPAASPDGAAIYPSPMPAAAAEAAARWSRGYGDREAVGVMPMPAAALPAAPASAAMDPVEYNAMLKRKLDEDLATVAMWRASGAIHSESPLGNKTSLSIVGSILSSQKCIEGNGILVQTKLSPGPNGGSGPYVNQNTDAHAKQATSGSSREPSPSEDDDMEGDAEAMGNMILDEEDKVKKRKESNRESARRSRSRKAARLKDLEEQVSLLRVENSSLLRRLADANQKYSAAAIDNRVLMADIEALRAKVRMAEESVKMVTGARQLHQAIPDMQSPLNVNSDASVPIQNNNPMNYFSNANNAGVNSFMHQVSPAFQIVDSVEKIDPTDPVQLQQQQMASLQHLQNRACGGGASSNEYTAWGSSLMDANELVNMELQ
Assay: protein-binding microarray (RPBM); PBS, 2% BSA, 51.3 ng/ul salmon testes DNA, 50 uM zinc acetate, 200 nM TF, 25 C, 1 h; high values mean tight binding
Conditions: protein: recombinant; tags: N-terminal polyhistidine and DsRed monomer fusion (pET32a); chain copies: 2; label: CyDye5-dUTP incorporated in the synthesized complementary strand; 3' TTTTT single-stranded linker to array surface; dsDNA, one strand shown
Procedure, shortened: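 Transcription factors were each fused at the N-terminus to a polyhistidine tag plus DsRed and expressed in E. coli BL21-CodonPlus before Ni–NTA purification. Binding to a double-stranded custom Agilent array was carried out with 200 nM protein at 25 °C for 1 h in PBS, 2% BSA, salmon testes DNA and 50 µM zinc acetate. The binding signal is per-feature fluorescence intensity, in arbitrary units, on an Axon 4000B scanner.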

Row | Sequence | binding signal
1 | CAATTCGACGCCCCACGTATGGCCCACTTGCAGGCCAGCCCGGAGTCACCTAGTGCAG | 4190 fluorescence intensity (a.u.)
2 | TGAAGATAGATGTCTCGAAGTCGAGCGACGTCATGGCGGCCGGAGTCACCTAGTGCAG | 3280 fluorescence intensity (a.u.)
3 | GACGGGGAGGTGGGTGAGTCATGGGCTGACCCAATAACAGCGGAGTCACCTAGTGCAG | 5440 fluorescence intensity (a.u.)
4 | CGAGTCAAGTCATGCTGAGGTGGAAGAAACTCCGATAGGACGGAGTCACCTAGTGCAG | 6710 fluorescence intensity (a.u.)
5 | GATGAGGGAGAAGGAGGTGTAGAGACTGACGTGTGGGCCCCGGAGTCACCTAGTGCAG | 3670 fluorescence intensity (a.u.)
6 | ACTACTTACTACAAATTGAAAGACGCGTCATGTCTGCTGTCGGAGTCACCTAGTGCAG | 8180 fluorescence intensity (a.u.)
7 | AATTTGAGTTTATGACGCGTAGGCCCAATGATTTGTAAGGCGGAGTCACCTAGTGCAG | 3610 fluorescence intensity (a.u.)
8 | GCGCCGATGGTCAGGCCTGCCACATCACCACTTCACTTGGCGGAGTCACCTAGTGCAG | 21800 fluorescence intensity (a.u.)
9 | CTTCCTCTCTACTAATCCAAGTCACAGGTCGGCCATGACCCGGAGTCACCTAGTGCAG | 4720 fluorescence intensity (a.u.)
10 | GTAGTACTAGCTTTGTGGCTTCCGCTGCTTCTGTCACTGCCGGAGTCACCTAGTGCAG | 3210 fluorescence intensity (a.u.)
11 | ACTGCCGCTACCCTCTCTTTAGTCCCGGTTATTTCACCTGCGGAGTCACCTAGTGCAG | 31900 fluorescence intensity (a.u.)
12 | TCCCATTTAGTCCTAGGATTCATAGTTTGACAAAGTGAGTCGGAGTCACCTAGTGCAG | 6570 fluorescence intensity (a.u.)
13 | CTTCGCCTCAACTGCCACGGTGCCGTCGTCCTCCTCCATGCGGAGTCACCTAGTGCAG | 5270 fluorescence intensity (a.u.)
14 | CTGTCTGGTTCAACAAGATCGCTGACAAGACCGTCATCTGCGGAGTCACCTAGTGCAG | 3790 fluorescence intensity (a.u.)
15 | TCACTGACAACTGTGGCCCACAGTCTACCCACGGCGGCAGCGGAGTCACCTAGTGCAG | 3410 fluorescence intensity (a.u.)
16 | TCACGCTCTTCTTGTGTCCCTCCACGTCGCGGTGCCCGTGCGGAGTCACCTAGTGCAG | 5050 fluorescence intensity (a.u.)
17 | AACACGTTACAGTTTCCTACATACAATATAGCACTTCATCCGGAGTCACCTAGTGCAG | 4770 fluorescence intensity (a.u.)
18 | TCGGCGAGTCGGCGTCGCGTCACTCCCGTGCTCCGGCGACCGGAGTCACCTAGTGCAG | 3210 fluorescence intensity (a.u.)
19 | ACGGTGGCGGGGATGTGGAGGGAGGTGCAGGGGTGCGGGGCGGAGTCACCTAGTGCAG | 5180 fluorescence intensity (a.u.)
20 | TCTTCCAGTAAACCACACCCCAACCACATCTTAGCAATGACGGAGTCACCTAGTGCAG | 3160 fluorescence intensity (a.u.)
21 | TGACTGTGAGCTCCAAAACTTTAGATGACATGTACTCCCTCGGAGTCACCTAGTGCAG | 3690 fluorescence intensity (a.u.)

Row | Sequence | binding signal
22 | TGGCGAAGAGCAGTTTTGGCCTAAAAGATATAAAGAATGCCGGAGTCACCTAGTGCAG | 3210 fluorescence intensity (a.u.)
23 | GAAGAATATTACGCTAGCCGTCGACTACGTGTGAGAGCTCCGGAGTCACCTAGTGCAG | 3990 fluorescence intensity (a.u.)
24 | AACTAATATTTAGTTCCTTAATTACATTGAAACTATTTATCGGAGTCACCTAGTGCAG | 27600 fluorescence intensity (a.u.)
25 | CTCGGAGTCCTTGCCGGCAACTGGACAACCAAGGTGTCCACGGAGTCACCTAGTGCAG | 3160 fluorescence intensity (a.u.)
26 | AATCATATGTAAAACATAGATAATTTTATATGGGTGTTAGCGGAGTCACCTAGTGCAG | 3160 fluorescence intensity (a.u.)
27 | ACCTGGATCAACCTGACAATGAGTCAATGACTCAGGATAACGGAGTCACCTAGTGCAG | 6570 fluorescence intensity (a.u.)
28 | CCAAACCGCCGTCTATATGCAACTTACATGAAAACAATTGCGGAGTCACCTAGTGCAG | 3530 fluorescence intensity (a.u.)
29 | TAAGGTTGAAAATTCAAAATTTAGCTAATAAGTATAAATACGGAGTCACCTAGTGCAG | 4700 fluorescence intensity (a.u.)
30 | GAGGTGGCGCACGTCGCGCGCCGACGACGCGCTGAGGTAGCGGAGTCACCTAGTGCAG | 3580 fluorescence intensity (a.u.)
31 | CGTGCGAGTCGCTCATCAATCACGTCATTCGCCCACACACCGGAGTCACCTAGTGCAG | 5600 fluorescence intensity (a.u.)
32 | GACGCGGACGGCGCCGAGCTGCTCAAGCTCGCCCTCGACGCGGAGTCACCTAGTGCAG | 5270 fluorescence intensity (a.u.)
33 | CAAAAGCCTCGCCGCGCACCACCACCCAGCTCTCTCCACTCGGAGTCACCTAGTGCAG | 3640 fluorescence intensity (a.u.)
34 | TCTCGTCTCGTGACGAAGTTGTACGAGGTGACGTAGCTAGCGGAGTCACCTAGTGCAG | 3440 fluorescence intensity (a.u.)
35 | CCAAATGTAACTATACTAAGAGTCTTTTGACTAGATTTTACGGAGTCACCTAGTGCAG | 3180 fluorescence intensity (a.u.)
36 | TGAATTCGGACAGCAGTCACCACTCCCTCAGTCCCTCGTCCGGAGTCACCTAGTGCAG | 3160 fluorescence intensity (a.u.)
37 | AACAGGAGACTGGCTACTTACTTGCGCTTCTCCATTTCTGCGGAGTCACCTAGTGCAG | 21000 fluorescence intensity (a.u.)
38 | CGTTGTTCCTTGGGTTAGTCACACATCACCAAAACGATTTCGGAGTCACCTAGTGCAG | 4490 fluorescence intensity (a.u.)
39 | CGCATAGATAGACCATACGTGCCAGGTTGACAGAGTTTCACGGAGTCACCTAGTGCAG | 3250 fluorescence intensity (a.u.)
40 | TGTGGTAAAGCTTGGGTGTGTAGTGGGTAAGGACCCTGCACGGAGTCACCTAGTGCAG | 28600 fluorescence intensity (a.u.)
41 | GTCTTCTCCACGTCTCTCCCTCCCTCCCTCTCTAGAGCCTCGGAGTCACCTAGTGCAG | 4096 fluorescence intensity (a.u.)
42 | GTATATATACCATAAAATTTTATGGAATTTTATGTAACAACGGAGTCACCTAGTGCAG | 3300 fluorescence intensity (a.u.)

Rewritten with tabs: part of the list above
Row	Sequence	binding signal
8	GCGCCGATGGTCAGGCCTGCCACATCACCACTTCACTTGGCGGAGTCACCTAGTGCAG	21800 fluorescence intensity (a.u.)
9	CTTCCTCTCTACTAATCCAAGTCACAGGTCGGCCATGACCCGGAGTCACCTAGTGCAG	4720 fluorescence intensity (a.u.)
10	GTAGTACTAGCTTTGTGGCTTCCGCTGCTTCTGTCACTGCCGGAGTCACCTAGTGCAG	3210 fluorescence intensity (a.u.)
11	ACTGCCGCTACCCTCTCTTTAGTCCCGGTTATTTCACCTGCGGAGTCACCTAGTGCAG	31900 fluorescence intensity (a.u.)
12	TCCCATTTAGTCCTAGGATTCATAGTTTGACAAAGTGAGTCGGAGTCACCTAGTGCAG	6570 fluorescence intensity (a.u.)
13	CTTCGCCTCAACTGCCACGGTGCCGTCGTCCTCCTCCATGCGGAGTCACCTAGTGCAG	5270 fluorescence intensity (a.u.)
14	CTGTCTGGTTCAACAAGATCGCTGACAAGACCGTCATCTGCGGAGTCACCTAGTGCAG	3790 fluorescence intensity (a.u.)
15	TCACTGACAACTGTGGCCCACAGTCTACCCACGGCGGCAGCGGAGTCACCTAGTGCAG	3410 fluorescence intensity (a.u.)
16	TCACGCTCTTCTTGTGTCCCTCCACGTCGCGGTGCCCGTGCGGAGTCACCTAGTGCAG	5050 fluorescence intensity (a.u.)
17	AACACGTTACAGTTTCCTACATACAATATAGCACTTCATCCGGAGTCACCTAGTGCAG	4770 fluorescence intensity (a.u.)
18	TCGGCGAGTCGGCGTCGCGTCACTCCCGTGCTCCGGCGACCGGAGTCACCTAGTGCAG	3210 fluorescence intensity (a.u.)
19	ACGGTGGCGGGGATGTGGAGGGAGGTGCAGGGGTGCGGGGCGGAGTCACCTAGTGCAG	5180 fluorescence intensity (a.u.)
